Data published in publication PMC12051542, “Identification of the phosphatase essential for riboflavin biosynthesis in Aquifex aeolicus” (The Journal of Biological Chemistry, 2025).
These are yes or no findings as the source states them, for the method shown. Some results given as binding are weak or reduced against the parent protein; the word gives no strength.

Molecular target: putative phosphatase 11 (PP11), annotated as a myo-inositol-1(or 4)-monophosphatase (IMP), Aquifex aeolicus (Aquifex aeolicus) (UniProt O67791)
Assay: crystal structure; hanging drop, 75 mM Hepes pH 7.5, 70% MPD, room temperature; P21, 1.75 Å, molecular replacement with 2PCR; both purified

binding: binds
B1: putative phosphatase 11 (PP11), annotated as a myo-inositol-1(or 4)-monophosphatase (IMP), Aquifex aeolicus (enzyme)
chain: MENLKKYLEVAKIAALAGGQVLKENFGKVKKENIEEKGEKDFVSYVDKTSEERIKEVILKFFPDHEVVGEEMGAEGSGSEYRWFIDPLDGTKNYINGFPIFAVSVGLVKGEEPIVGAVYLPYFDKLYWGAKGLGAYVNGKRIKVKDNESLKHAGVVYGFPSRSRRDISIYLNIFKDVFYEVGSMRRPGAAAVDLCMVAEGIFDGMMEFEMKPWDITAGLVILKEAGGVYTLVGEPFGVSDIIAGNKALHDFILQVAKKYMEVAV
notes: Aquifex aeolicus putative phosphatase 11, annotated as myo-inositol-1(or 4)-monophosphatase; codon optimised, in pET20b with a stop codon before the C-terminal histidine tag so that the protein is expressed in the native form; Untagged; Two magnesium ions and a phosphate in the active site of the structure; source: E. coli BL21 (DE3), purified (heat 70 °C, gel filtration)
